From PubChem BioAssay AID1347076 (National Center for Advancing Translational Sciences (NCATS), 2019)
In all, about 400,000 compounds went through this assay and about 13,000 (3.2%) were called active. The inconclusive results got no clear call from the source; some entries with a clear call stand among them for comparison. The call rests on the fitted dose curve; in most records, active means well fitted cell-killing curve with a large enough effect; inconclusive means small, poorly fitted or top-dose-only effect, or effect the other way; inactive means flat fitted curve, though single readings scatter. A potency beside an inconclusive call is a rough fit, not a confirmed value.

Experiment: qHTS assay for MDR1-selective chemotherapeutics: Primary screen using the drug-selected MDR subline cells KB-V1; further: nearly all actives have a fitted effect of over 60% in size
Conditions: KB-V1 MDR cells viability, CellTiter-Glo, 72 h; activity change, negative = cytotoxicity: at 46.1 µM (top of the series)
Method in brief: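 Readout: CellTiter-Glo luminescence, 10 min after addition. Cells: KB-V1 MDR subline, 72 h at 37 degrees C with compound. Analysis: corrected, normalized data fitted to concentration-effect curves.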
On the % scale 0 is the no-effect control and ±100 the full control effect; potency means the concentration at half of the fitted maximal effect.

SMILES	Potency	activity change, negative = cytotoxicity
Cc1cc(C)cc(NC(=O)COC(=O)c2cccc(S(=O)(=O)N3CCCCC3)c2)c1	inconclusive: 29.1 µM [rising, single point]	
CC(=O)c1sc(NC(=O)CS(=O)(=O)c2ccccc2)nc1C	inconclusive: 29.1 µM [rising, single point]	
OC(CNCc1ccccc1)c1ccccc1 (stereo not drawn)		inactive: -6.16%
CCN1C/C(=C/c2ccc(OC)c(O)c2)C(=O)/C(=C/c2ccc(OC)c(O)c2)C1	inconclusive: 16.4 µM [cytotoxic, single point]	
Cc1nc2sccn2c(=O)c1S(=O)(=O)N1CCN(c2cccc(Cl)c2)CC1		inactive: -5.25%
Cn1c(N2CCCC2)nc2c1c(=O)n(Cc1cccc(F)c1)c(=O)n2C	inconclusive: 10.3 µM [cytotoxic, partial curve]	
COc1cc2nc(CC(C)C)n(NC(=O)c3ccccc3)c(=O)c2cc1OC	active: 7.31 µM	
CN(C)c1ccc(C(C(=O)NCC2CCCO2)N(Cc2ccccc2)C(=O)c2snc(C(N)=O)c2N)cc1 (stereo not drawn)	inconclusive: 13 µM [cytotoxic, partial curve]	
O=c1c2c(nc3cc(-c4cccc(Cl)c4)[nH]n13)CCCC2	inconclusive: 18.4 µM [cytotoxic, single point]	
CCOc1cc(/C=C/c2ccc3cccc([N+](=O)[O-])c3n2)ccc1O	active: 20.6 µM	
CCN(CC)S(=O)(=O)c1cc(NC(=O)Cc2ccc(S(=O)(=O)N3CCOCC3)s2)ccc1Cl		inactive: -17.5%
CCN(CC)S(=O)(=O)c1cccc(-c2nnc(SCCOc3ccccc3)o2)c1	active: 16.4 µM	
CN(C)S(=O)(=O)c1cccc(NC(=O)c2cncc(Br)c2)c1	active: 14.6 µM	
CCOC(=O)C1CCN(S(=O)(=O)c2c(C)[nH]c(C)c2C(=O)N2CCCC2)CC1	inconclusive: 20.6 µM [rising, single point]	
COc1ccc(N2CCN(C(=O)CSc3nnc(-c4cc5ccccc5cc4O)n3C)CC2)cc1	active: 2.31 µM	
O=C1c2cccc3cccc(c23)C(=O)N1Cc1ccco1	inconclusive: 3.66 µM [cytotoxic, full curve, poor fit]	
COc1ccc(/C=C/C(=O)N2CCCc3ccccc32)cc1	active: 13 µM	
COc1cc(NC(=O)Nc2cccc(Cl)c2)c(OC)cc1NC(=O)CN1CCCCC1	inconclusive: 29.1 µM [cytotoxic, single point]	
O=C(CSc1nc2ccccc2c(=O)n1CCCO)NC1CC1		inactive: 5.65%
O=S(=O)(CCN1CCN(C(c2ccccc2)c2ccccc2)CC1)C(F)(F)F		inactive: -0.775%
COCCCn1cnnc1SC(C)C(=O)Nc1ccc(S(=O)(=O)N2CCOCC2)cc1 (stereo not drawn)		inactive: 3.68%
Cc1ccc(-c2nnn3c2nc(NCCc2ccccc2)c2ccccc23)cc1		inactive: 10.9%
O=C1CN(C(=O)c2c(F)cccc2F)C(c2ccccc2)c2cc(Br)ccc2N1 (stereo not drawn)		inactive: 2.85%
COc1ccc(N(CC(=O)Nc2ccc(C)cc2C)S(=O)(=O)c2c(C)n[nH]c2C)cc1		inconclusive: -8.93%
COc1cccc(Nc2nc3ccc(OC)cc3s2)c1	inconclusive: 16.4 µM [cytotoxic, single point]	

SMILES	Potency	activity change, negative = cytotoxicity
N#Cc1ccc(N)cc1OCCCN1CCCCC1	inconclusive: 29.1 µM [rising, single point]	
Cc1ccc(-c2nnc(Nc3cccc(Br)c3)c3ccccc23)cc1S(=O)(=O)N1CCCCC1		inactive: 1.86%
CN1OC[C@@H]2CN(S(=O)(=O)c3cccc4ccccc34)[C@H](c3ccc(-c4cccnc4)cc3)C[C@@H]21		inactive: 26.9%
Cc1ccc(CSC(Nc2ccc(F)cc2)=C(C#N)C#N)cc1	active: 13 µM	
O=C(N/N=C/C(Br)=C\c1ccccc1)c1cccs1		inactive: -25%
O=C(NCC[C@@H]1CC[C@@H](NS(=O)(=O)c2ccccc2)[C@@H](CO)O1)c1cc(Cl)cc(Cl)c1	inconclusive: 23.1 µM [cytotoxic, partial curve, poor fit]	
Cc1cc(C(=O)Nc2ccc3c(c2)OCCO3)c(C)o1		inactive: -21%
COc1ccc(C2=Nn3c(nnc3C(F)(F)F)SC2)cc1	inconclusive: 29.1 µM [cytotoxic, single point]	
COc1ccc(NC(=O)CSCC(=O)N(C)CC(=O)Nc2ccc(Cl)c(C(F)(F)F)c2)cc1		inactive: 2.02%
CCn1cc(/C=C/C(=O)Nc2c(C)nn(Cc3ccccc3)c2C)cn1	inconclusive: 20.6 µM [cytotoxic, single point]	
O=C(NN=Cc1ccc(Cl)cc1Cl)C1CC1	active: 14.6 µM	
O=C(c1cc(-c2cccs2)nn1-c1ccccc1)N1CCN(S(=O)(=O)c2ccccc2)CC1	active: 16.4 µM	
CCC1(CC)NC(=O)N(CC(=O)OC(C)C(=O)Nc2ccc(S(N)(=O)=O)cc2)C1=O (stereo not drawn)		inactive: 25.9%
Cc1c(C)c(C)c(C(=O)c2ccc(NC(=O)c3ccccc3C(=O)O)cc2)c(C)c1C	inconclusive: 20.6 µM [rising, single point]	
Cc1ccc(C)c(NC(=O)CSc2c(C)cnc3c2c(=O)n(C)c(=O)n3C)c1		inactive: 14.4%
COc1cnc(-c2cccc(C(F)(F)F)c2)[nH]c1=O	inconclusive: 14.6 µM [rising, single point]	
O=C(CCC(=O)c1cccs1)NCc1ccc(Cl)cc1		inactive: 11.7%
Cc1[nH]c2ccccc2c1C(=O)COC(=O)c1c(-c2ccccc2)noc1C	inconclusive: 20.6 µM [cytotoxic, partial curve]	
COc1ccc(CCNC(=O)c2csc3c2CCCCC3)c(OC)c1	inconclusive: 29.1 µM [cytotoxic, single point]	
Cn1c(-c2cccs2)[n+](C)c2ccccc21	inconclusive: 29.1 µM [rising, single point]	
CCC(=O)N1c2ccccc2CC1C(=O)N1CCN(c2cccc(OC)c2)CC1 (stereo not drawn)		inactive: -2.51%
COc1ccc(C(=O)NN2CCCCC2)cc1OC	inconclusive: 6.51 µM [rising, partial curve, poor fit]	
CC(C)(C)NC(=O)C(c1ccc(O)cc1)N(Cc1ccc2c(c1)OCO2)C(=O)CCl (stereo not drawn)		inactive: 4.53%
CCOC(=O)Cc1csc(NC(=O)CCNS(=O)(=O)c2ccc3c(c2)CCC(=O)N3)n1	inconclusive: 18.4 µM [rising, partial curve, poor fit]	
Cc1cc(-c2ccc(C(C)C)c(S(=O)(=O)N3CCOc4ccccc43)c2)on1	inconclusive: 32.6 µM [cytotoxic, single point]	

Quoted at random: six records from the list, in no set order.
SMILES	Potency	activity change, negative = cytotoxicity
CCOc1cc(/C=C/c2ccc3cccc([N+](=O)[O-])c3n2)ccc1O	active: 20.6 µM	
OC(CNCc1ccccc1)c1ccccc1 (stereo not drawn)		inactive: -6.16%
COc1ccc(CCNC(=O)c2csc3c2CCCCC3)c(OC)c1	inconclusive: 29.1 µM [cytotoxic, single point]	
CN(C)S(=O)(=O)c1cccc(NC(=O)c2cncc(Br)c2)c1	active: 14.6 µM	
CC(C)(C)NC(=O)C(c1ccc(O)cc1)N(Cc1ccc2c(c1)OCO2)C(=O)CCl (stereo not drawn)		inactive: 4.53%
COc1cccc(Nc2nc3ccc(OC)cc3s2)c1	inconclusive: 16.4 µM [cytotoxic, single point]	

The list goes on.

SMILES	Potency	activity change, negative = cytotoxicity
Cc1cccc(NC(=O)CC2Nc3cccc4cccc(c34)NC2=O)c1 (stereo not drawn)		inactive: 0.45%
CC(=O)Nc1ccc(NC(=O)CSCc2cnn(-c3ccccc3)c2-n2cccc2)cc1		inactive: -13.4%
CC(=O)OC1CCC2(C)C(CCC3C2CC(=O)C2(C)C3CC(C3CCCC3=O)C2C(C)=O)C1 (stereo not drawn)		inactive: -1.23%
O=C(CSc1nc2ccccc2[nH]1)N1CCN(c2ccc(F)cc2)CC1	inconclusive: 29.1 µM [cytotoxic, single point]	
CCCn1c(NCc2ccc(C)o2)nc2ccccc21	inconclusive: 18.4 µM [cytotoxic, partial curve]	
COc1cc(-c2nnc(COc3ccc4cc(Br)ccc4c3)o2)cc(OC)c1OC		inactive: 0%
CC(=O)Nc1cccc(-c2ccnc3c2CC(C(=O)NCc2ccco2)O3)c1 (stereo not drawn)		inactive: -13.2%
O=C(c1ccc(Cl)cc1Cl)N1CCN(c2ccccn2)CC1		inactive: -27.8%
O=C(CSc1ccccc1C(=O)NCc1ccccc1)NC12CC3CC(CC(C3)C1)C2	active: 5.8 µM	
CC[C@]12c3[nH]c4ccc(OC)cc4c3CCN1C(=O)C(CC(=O)NCc1ccc(OC)c(OC)c1)C[C@@H]2C(=O)N1CCN(C(=O)C2CC2)CC1 (stereo partly drawn)	inconclusive: 6.51 µM [rising, partial curve, poor fit]	
COC(=O)[C@@]1(Cc2ccc(F)cc2)[C@H]2c3cc(C(=O)N4CCCC4)n(Cc4ccc(Cl)c(C(F)(F)F)c4)c3C[C@H]2CN1C(=O)c1ccccc1	inconclusive: 11.6 µM [cytotoxic, partial curve]	
CCc1nc(NCC2CCCO2)c2oc3ccccc3c2n1 (stereo not drawn)	inconclusive: 14.6 µM [cytotoxic, partial curve, poor fit]	
COC(=O)CC1C(=O)NCCN1C(=O)c1ccc([N+](=O)[O-])cc1 (stereo not drawn)		inactive: 1.74%
CCCn1c(N)c(N(CCOC)C(=O)c2ccc(N(C)S(=O)(=O)c3ccc(C)cc3)cc2)c(=O)[nH]c1=O		inactive: 0.363%
CCCCC(=O)N1CCCC(c2nc(-c3cccc(OC)c3)no2)C1 (stereo not drawn)		inactive: -4.98%
CC(C)NC(=O)NC(=O)COC(=O)Cc1ccsc1	inconclusive: 20.6 µM [rising, single point]	
Cc1ccc(-c2csc(NC(=O)Cc3ccc(F)cc3)n2)o1	inconclusive: 29.1 µM [cytotoxic, single point]	
CCc1nc2ccc(C(=O)NCc3ccc(OC)c(OC)c3)cc2nc1CC		inactive: 19.5%
CC1(C)Cc2c(c(N3CCOCC3)nc3sc(C(=O)Nc4ccc(Cl)cc4)c(N)c23)CO1	inconclusive: 20.6 µM [cytotoxic, single point]	
Cc1cccc(NC(=O)CSc2nc(-c3cccc(C)c3)nc3c2Cc2c(CO)cnc(C)c2O3)c1		inactive: -3.4%
CCOC(=O)COc1ccc(/C=C(\C#N)c2nc3ccc(C)cc3[nH]2)cc1OC	inconclusive: 29.1 µM [rising, single point]	
COc1ccc(CC2(C)OC(c3ccc([N+](=O)[O-])cc3)=NN2C(C)=O)cc1 (stereo not drawn)	inconclusive: 29.1 µM [cytotoxic, partial curve, poor fit]	
NNc1nc(NCc2ccccc2)nc(N2CCOCC2)n1	inconclusive: 29.1 µM [cytotoxic, single point]	
